# Results reported in PubChem BioAssay AID504834 (National Center for Advancing Translational Sciences (NCATS), 2011).
# Hit rate of the full screen: of about 320,000 compounds, about 22,000 (6.9%) were called active. The inconclusive results got no clear call from the source; some entries with a clear call stand among them for comparison. The call rests on the fitted dose curve; in most records, active means well fitted inhibition curve with a large enough effect; inconclusive means small, poorly fitted or top-dose-only effect, or another doubt; inactive means no such curve, though single readings can be large or run the other way. Where the call is inconclusive, the potency comes from a doubtful curve fit.
# Assay: Primary qHTS for delayed death inhibitors of the malarial parasite plastid, 96 hour incubation
# Conditions: P. falciparum luciferase reporter growth; series mostly up to 28.7 µM
# Procedure, shortened: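 Plates of compound plus infected erythrocytes (2% hematocrit, 0.05% parasitemia final) incubate 96 hours, 37 C, 5% CO2. Detection reagent added; reduced luminescence from the parasites' luciferase reporter flags inhibition.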
# Potency means the concentration at half of the fitted maximal effect.
row,SMILES,Potency
1,Cc1ccc(C2Nc3ccccc3NC3=C2C(=O)CC(C)(C)C3)c(O)c1 (stereo not given),inactive
2,CC(=O)c1ccc(NC(=O)C(C)OC(=O)c2ccc(NS(=O)(=O)c3ccc(F)c(F)c3)cc2)cc1 (stereo not given),"inconclusive: 11.7 µM [inhibitor, single point]"
3,COc1ccc(N=C2S/C(=C\c3ccco3)C(=O)N2CC(C)C)cc1,"inconclusive: 6.57 µM [inhibitor, partial curve, poor fit]"
4,O=S(=O)(NCc1ccco1)c1ccccc1Br,"inconclusive: 10.4 µM [inhibitor, single point]"
5,Cc1ccc2[nH]c(=O)c3cc(C(=O)N(C)Cc4ccco4)sc3c2c1,inactive
6,O=C(CN1C(=O)c2ccccc2C1=O)N1CCN=C1c1ccccc1,inactive
7,CCNc1ccccc1CP(=O)(c1ccccc1)c1ccccc1O (stereo not given),active: 11.7 µM
8,CCOC(=O)c1c(C)nc2c(c1-c1cc(OC)ccc1OC)C(=O)CC(C)(C)C2,inactive
9,COc1ccc2cc(-c3[nH]ncc3CN3CCCN(c4ccccc4)CC3)ccc2c1,"inconclusive: 18.5 µM [inhibitor, single point]"
10,NC(=O)c1cc(S(=O)(=O)N2CCN(c3cccc(Cl)c3)CC2)cs1,active: 1.17 µM
11,CN(C)CCNCCCOc1ccccc1-c1ccccc1,inactive
12,CCCNC(=O)CN(c1ccccc1)S(=O)(=O)c1ccc(OC)c(OC)c1,"inconclusive: 13.1 µM [inhibitor, single point]"
13,C#CCOCCOCCOCCNc1nc(N2CCN(C(=O)[C@H](C(C)C)n3cc(CCO)nn3)CC2)nc(N2CCN(C(=O)[C@H]([C@@H](C)CC)n3cc(CCCN=C(N)N)nn3)CC2)n1,"inconclusive: 10.4 µM [inhibitor, partial curve, poor fit]"
14,O=C(OCc1nnc(-c2ccccc2)o1)c1ccc(S(=O)(=O)NCc2ccco2)cc1,"inconclusive: 0.0586 µM [inhibitor, full curve, poor fit]"
15,CN(C)c1cnn(-c2ccccc2)c(=O)c1Cl,inactive
16,COc1ccc(CNS(=O)(=O)c2cc(-c3cc(C)no3)ccc2C)cc1OC,"inconclusive: 14.7 µM [inhibitor, single point]"
17,CCOC(=O)c1ccc(OC(=O)CCCCCN=C(N)N)cc1,active: 4.55 µM
18,O=C(NC(=S)NCCOCc1ccc(Cl)cc1)c1cccnc1,"inconclusive: 18.5 µM [inhibitor, single point]"
19,COC(=O)Cn1c(=O)cnc2ccccc21,"inconclusive: 7.38 µM [inhibitor, partial curve, poor fit]"
20,CCOc1ccc(C(C)=O)cc1N1C(=O)C2C(C1=O)C1C=CC2C12CC2 (stereo not given),inactive

# Given tab-delimited: part of the list above.
row	SMILES	Potency
7	CCNc1ccccc1CP(=O)(c1ccccc1)c1ccccc1O (stereo not given)	active: 11.7 µM
8	CCOC(=O)c1c(C)nc2c(c1-c1cc(OC)ccc1OC)C(=O)CC(C)(C)C2	inactive
